# At least one read-out could not be matched to a standard name with certainty.
# Assay: GI Exposure PK in Mice
# Format: in vivo
# Details: male BalbC mice, oral dose of 5 mg/kg
# Protocol: The test compound, Example 75, was wetted with ˜0.025% of Tween-20 and triturated in a mortar and pestle, then slowly 0.5% of methyl cellulose was added to make up the final volume to 7.25 mL. The BalbC test animals were subjected to anesthesia induced with a mixture of 5% isoflurane and 0.8-1.5 L/min O2 gas flow. The formulated test compound was then dosed via oral gavage. At various time points (0.5, 1, 2, 4, 6 and 8 h) blood samples (˜100 μL) were collected from portal vein (pre-hepatic) followed by cardiac puncture (circulating) into tubes containing 2% w/v aqueous K2 EDTA solution as per time points. Post blood sampling, the gastro intestine (GI) tissues were collected from the mice at the same time points. The GI tissue was dissected into different parts as duodenum, jejunum, ileum and colon. The separated tissues were washed by flushing with PBS via oral gavage needle to remove GI content. Post collection all the tissues were blotted, weighed and homogenized with PBS buffer (pH 7.4). The blood samples were immediately placed on ice and centrifuged within 30 min at 4° C. for 5 min at 8,000 rpm to obtain plasma. Plasma was transferred by pipettes to pre-labelled centrifuge tubes and immediately transferred to −80° C. until bioanalysis. Tissue samples were placed in pre-labelled container and all samples were kept in −80° C. until homogenized. The homogenate was stored immediately in −80° C. until bioanalysis was conducted. Study samples were thawed to room temperature and 50 μL of sample was aliquoted into pre-labeled vials. To these was added 400 μL of 100% acetonitrile containing an IS (100 ng/mL; warfarin, tolbutamide and loperamide). The vials were mixed well, vortexed for 5 min, followed by centrifugation for 5 min at 14000 rpm at 4° C. The supernatant was separated and same was injected on LC-MS/MS. Plasma and GI tissue levels of test compound were determined by LC-MS analysis using a standard curve in the text matrix. Individual concentration-time data were analyzed using Phoenix WinNonlin (Version 8.1) by the non-compartmental analysis (NCA) method.
structure (smiles),measurement,setting,value
"Cc1nnc(-c2cnc3[nH]ccc3c2N[C@H]2C[C@@H](NS(=O)(=O)c3cccc(C#N)c3)C2)s1 [Example 75, 3-cyano-N-((1s,3s)-3-((5-(5-methyl-1,3,4-thiadiazol-2-yl)-1H-pyrrolo[2,3-b]pyridin-4-yl)amino)cyclobutyl)benzenesulfonamide]",Cmax,Circulating plasma,BLQ
same,Cmax,Colon,2401 ng/mL or ng/g
same,Cmax,Duodenum,1066 ng/mL or ng/g
same,Cmax,Ileum,11279 ng/mL or ng/g
same,Cmax,Jejunum,10923 ng/mL or ng/g
same,Cmax,Portal plasma,125 ng/mL or ng/g
